Where “and” joins values, the source holds several entries; their conditions need not be identical. Identical values can stand only once. Counter-ions that a name gives are not always drawn. Some of the results follow. Most entries show no effect beyond the scatter of the controls.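 Differential scanning fluorimetry gave melting temperatures in a one-replicate pilot screen of a library of approved drugs plus clinical or known-target compounds. Hits increasing melting point at least 2 °C were the strongest stabilizers, while negative shifts signify destabilization.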
These molecules were tested on SARS-CoV-2 main protease (Mpro, nsp5) (assay: thermal shift ΔTm of Mpro relative to plate average Tm; higher = stronger thermal stabilization of Mpro (binding)). Conditions: 10 µM; protein concentration 1 µM.

| SMILES | thermal shift ΔTm of Mpro |
| --- | --- |
| O=C(O)c1cc(-c2ccccc2)nc2ccccc12 [Cinchophen] | -0.0159 °C |
| C[C@H]1C[C@@H]2[C@H]([C@@H](O)C[C@@]3(C)[C@H]2CC[C@]3(O)C(=O)CO)[C@@]2(C)C=CC(=O)C=C12 [Methylprednisolone] | -0.0336 °C |
| CCn1cc(-c2cccc(C(F)(F)F)c2)c2sc(C(=N)NC3CCS(=O)(=O)CC3)cc2c1=O | -0.093 °C |
| CCCNCC(O)COc1ccccc1C(=O)CCc1ccccc1 (centres undefined) [Propafenone] | 0.0418 °C |
| CCCNCC(O)COc1ccccc1C(=O)CCc1ccccc1 (centres undefined) [Propafenone HCl] | -0.0481 °C |
| C/C(=C/C(=O)O)C(=O)O [Citraconic acid] | -0.0302 °C |
| O=C1c2ccc(Nc3ccc(F)cc3F)cc2CCc2ccc(OC[C@H](O)CO)cc21 [Skepinone-L] | -0.202 °C |
| CCc1ccc(C(=O)COc2ccc(CC3SC(=O)NC3=O)cc2)nc1 (centres undefined) | 0.0106 °C |
| CNS(=O)(=O)C[C@H]1CC[C@H](N(C)c2[nH]cnc3nccc2-3)CC1 [Oclacitinib] | 0.00881 °C |
| O=C(Nc1ccccc1)Nc1ccccc1 [1,3-Diphenylurea] | -0.276 °C |
| CN(C)C(=S)NN=C(c1ccccn1)c1ccccn1 | -0.308 °C |
| COc1ccccc1OCC(O)CN1CCN(CC(=O)Nc2c(C)cccc2C)CC1 (centres undefined) [Ranolazine] | 0.0772 °C |
| COc1ccccc1OCC(O)CN1CCN(CC(=O)Nc2c(C)cccc2C)CC1 (centres undefined) [Ranolazine 2HCl] | 0.202 °C |
| COc1cc([C@@H]2c3cc4c(cc3[C@@H](O[C@@H]3O[C@@H]5CO[C@@H](C)O[C@H]5[C@H](O)[C@H]3O)[C@H]3COC(=O)[C@H]23)OCO4)cc(OC)c1O [Etoposide] | -0.259 °C |
| O=S(=O)(O)NC1CCCCC1 [Cyclamic  acid] | -0.085 °C |
| O=C(O)C(O)Cc1ccccc1 (racemic) [DL-3-Phenyllactic acid] | 0.159 °C |
| CCN(CC)CCc1nc(-c2ccccc2)no1 [Oxolamine citrate] | 0.257 °C |
| COc1ccc([C@]2(C#N)CC[C@@H](C(=O)O)CC2)cc1OC1CCCC1 [Cilomilast] | 0.213 °C |
| CCOc1c2c(c(OCC)c3ccccc13)C(=O)N(c1ccc(CC(=O)NS(=O)(=O)c3ccccc3)cc1)C2 | 0.0737 °C |
| CNCC(O)c1ccc(OC(=O)C(C)(C)C)c(OC(=O)C(C)(C)C)c1 (centres undefined) [Dipivefrin hydrochloride] | 0.0185 °C |
| COCC[n+]1c2c(n(Cc3cnccn3)c1C)C(=O)c1ccccc1C2=O [YM155 (Sepantronium Bromide)] | -0.183 °C |
| O=C(NCCO)c1cccc(-c2cc(Nc3ccc(OC(F)(F)F)cc3)ncn2)c1 | 0.234 °C |
| C#CC[C@H](c1nc2cc(Cl)ccc2c(=O)n1Nc1ccccc1)N(CCCN)C(=O)c1cccc(Cl)c1F | -0.365 °C |
| Cc1c(N(C)CS(=O)(=O)O)c(=O)n(-c2ccccc2)n1C [Analgin] | 0.346 °C |
| C[C@@H]1CCN(C(=O)CC#N)C[C@@H]1N(C)c1ncnc2[nH]ccc12 | 0.0476 °C and -0.0777 °C |
| Cc1cc2c(F)c(Oc3ncnn4cc(OC[C@@H](C)OC(=O)[C@H](C)N)c(C)c34)ccc2[nH]1 | -0.213 °C |
| O=c1[nH]c(=O)n(C2CCCO2)cc1F (centres undefined) | 0.372 °C |

| SMILES | thermal shift ΔTm of Mpro |
| --- | --- |
| CC(NCCC(c1ccccc1)c1ccccc1)c1ccccc1 (centres undefined) [Fendiline hydrochloride] | 0.313 °C |
| CCOC(=O)Nc1cc(-c2ccc(C)c(NS(C)(=O)=O)c2)nn2c(C)nnc12 [Bromosporine] | -0.0532 °C |
| CCCCNNC(=O)c1ccc(-c2cccc(F)c2F)cc1 | -0.193 °C |
| Nc1cc(C(Cl)=C(Cl)Cl)c(S(N)(=O)=O)cc1S(N)(=O)=O [Clorsulon] | -0.0232 °C |
| Cc1ccccc1CN1C2=NCCN2C(=O)C2=C1CCN(Cc1ccccc1)C2 [TIC10 Analogue] | 0.00869 °C |
| CC[C@H](C)C(=O)O[C@H]1CCC=C2C=C[C@H](C)[C@H](CC[C@@H]3C[C@@H](O)CC(=O)O3)[C@H]21 [Mevastatin] | -0.2 °C |
| C[C@H](CCC(=O)O)[C@H]1CC[C@H]2[C@@H]3[C@H](O)C[C@@H]4C[C@H](O)CC[C@]4(C)[C@H]3CC[C@]12C [Chenodeoxycholic Acid] | 0.004 °C |
| CN1CCN(c2c(F)cc3c(=O)c(C(=O)O)cn(CCF)c3c2F)CC1 [Fleroxacin] | -0.023 °C |
| CC(=O)OCC(CCn1cnc2cnc(N)nc21)COC(C)=O [Famciclovir] | -0.0228 °C |
| COc1ccc([C@@H]2CC(=O)c3c(O)cc(O[C@@H]4O[C@H](CO)[C@@H](O)[C@H](O)[C@H]4O[C@@H]4O[C@@H](C)[C@H](O)[C@@H](O)[C@H]4O)cc3O2)cc1O [Neohesperidin] | -0.215 °C |
| C=CC(=O)Nc1cccc(Oc2nc(Nc3ccc(N4CCN(C)CC4)cc3OC)ncc2Cl)c1 | 0.441 °C |
| CC(C)CC(CC(=O)NO)C(=O)N[C@@H](Cc1ccc2ccccc2c1)C(=O)N[C@@H](C)C(=O)NCCN (some centres undefined) [TAPI-1 trifluoroacetate] | -0.0178 °C |
| CC(C)CC(CC(=O)NO)C(=O)N[C@@H](Cc1ccc2ccccc2c1)C(=O)N[C@@H](C)C(=O)NCCN (some centres undefined) | 0.146 °C |
| NCC(O)CC(=O)O (centres undefined) [4-Amino-3-hydroxybutyric Acid] | 0.115 °C |
| COC(=O)CCSCc1ccc(-c2onc(C)c2NC(=O)OC(C)c2ccccc2Cl)cc1 (centres undefined) | -0.125 °C |
| CN1CCN(CCCN2c3ccccc3Sc3ccc(Cl)cc32)CC1 [Prochlorperazine Maleate] | 0.114 °C |
| Cc1nc(=O)c2cc(CN(C)c3ccc(C(=O)N[C@@H](CCC(=O)O)C(=O)O)s3)ccc2[nH]1 [Raltitrexed] | 0.13 °C |
| O=C1c2ccccc2C(=O)c2c1ccc(O)c2O [Alizarin] | 0.681 °C |
| c1ccc(CNc2nc(NCc3ccccc3)c3ccccc3n2)cc1 | -0.0656 °C |
| CC(/C=C1\SC(=S)N(CC(=O)O)C1=O)=C\c1ccccc1 [Epalrestat] | 0.0784 °C |
| CCCOc1ccn2c(C(C)=O)cc(-c3ccccc3S(C)(=O)=O)c2c1 | -0.0123 °C |
| CCCN(CCC)C1CCc2cccc(O)c2C1 (centres undefined) | -0.0119 °C |
| CS(=O)(=O)N1CCc2c(-c3cnc(N)nc3)nc(N3CCOCC3)nc21 | -0.0238 °C |
| O=c1oc2ccccc2c(O)c1Cc1c(O)c2ccccc2oc1=O [Dicoumarol] | -0.0334 °C |
| COc1ccc(C(=O)N2CCCC2=O)cc1 [Aniracetam] | 0.321 °C |
| C(=C\c1ccccc1)/CN1CCN(C(c2ccccc2)c2ccccc2)CC1 [Stugeron] | 0.132 °C |
| CCN(CC)CC(=O)Oc1ccc(NC(C)=O)cc1 [Propacetamol Hydrochloride] | 0.394 °C |

| SMILES | thermal shift ΔTm of Mpro |
| --- | --- |
| C[C@]1(O)C[C@@H](c2nc(-c3ccc4ccc(-c5ccccc5)nc4c3)c3c(N)nccn32)C1 [OSI-906 (Linsitinib)] | 0.0774 °C |
| C[C@@H]1CCO[C@H]2Cn3cc(C(=O)NCc4ccc(F)cc4F)c(=O)c(O)c3C(=O)N12 [Dolutegravir sodium] | 0.0703 °C |
| C[C@@H]1CCO[C@H]2Cn3cc(C(=O)NCc4ccc(F)cc4F)c(=O)c(O)c3C(=O)N12 | 0.315 °C |
| O=C(C1CCCCC1)N1CC(=O)N2CCc3ccccc3C2C1 (centres undefined) [Praziquantel] | -0.168 °C |
| CNC(=O)c1cc(Oc2ccc(NC(=O)Nc3cc(C(C)(C)C)nn3-c3ccc4ncccc4c3)c(F)c2)ccn1 [DCC-2036 (Rebastinib)] | 0.00791 °C |
| OC[C@H]1O[C@H](O[C@]2(CCl)O[C@H](CCl)[C@@H](O)[C@@H]2O)[C@H](O)[C@@H](O)[C@H]1Cl [Sucralose] | -0.1 °C |
| COc1cc(-c2oc3cc(O)cc(O)c3c(=O)c2O[C@@H]2O[C@H](CO[C@@H]3O[C@H](CO)[C@@H](O)[C@H](O)[C@H]3O)[C@@H](O)[C@H](O)[C@H]2O)ccc1O [Astragaloside] | 0.0124 °C |
| Nc1nc2ccc(OC(F)(F)F)cc2s1 [Riluzole] | -0.000155 °C |
| CN1CCC(=C2c3ccccc3CCc3cccnc32)CC1 [Azatadine dimaleate] | -0.0562 °C |
| Cc1cc(-c2ncc(CNC(=O)c3ccc4c(c3)[nH]c3ccccc34)cc2F)ccn1 [Porcupine-IN-1] | 0.282 °C |
| COc1ccc2c(c1)c(CC(=O)O)c(C)n2C(=O)c1ccc(Cl)cc1 [Indomethacin] | -0.136 °C |
| COC(=O)[C@H](CCCN=C(N)N)NS(=O)(=O)c1ccc(C)cc1 | -0.11 °C |
| COC(=O)[C@H](CCCN=C(N)N)NS(=O)(=O)c1ccc(C)cc1 [TOS-ARG-OME hydrochloride] | 0.373 °C |
| CC(C)(C)NCC(O)COc1cccc2c1CCC(=O)N2 (centres undefined) [Carteolol HCl] | -0.0485 °C |
| CNC(=O)c1cc(Oc2ccc(NC(=O)Nc3ccc(Cl)c(C(F)(F)F)c3)c(F)c2)ccn1 [Regorafenib (BAY 73-4506)] | 0.403 °C |
| O=C(O[C@H]1C[C@H]2CC[C@@H](C1)[N+]21CCCC1)C(O)(c1ccccc1)c1ccccc1 [Trospium chloride] | 0.0237 °C |
| CN(C)CC(=O)Nc1ccc2[nH]c(=O)c3ccccc3c2c1 | -0.124 °C and -0.107 °C |
| N#C/C(=C\c1ccc(-c2cc(Cl)ccc2Cl)o1)C(=O)Nc1cccc2ncccc12 | 0.122 °C |
| CC(=O)NCCCS(=O)(=O)O [Acamprosate calcium] | 0.191 °C |
| N#Cc1cnc(Nc2cc(NC[C@H]3CNCCO3)c(C(F)(F)F)cn2)cn1 | 0.0586 °C |
| O=C(O)c1cc(/N=N/c2ccc(O)c(C(=O)O)c2)ccc1O [Olsalazine Sodium] | 0.435 °C |
| O=C(Nc1ccccc1-c1cn2c(CN3CCNCC3)csc2n1)c1cnc2ccccc2n1 | 0.159 °C |
| CCCC(CCC)C(=O)Nc1ccn([C@@H]2O[C@H](CO)[C@@H](O)C2(F)F)c(=O)n1 | 0.0845 °C |
| OC(CNCC(O)C1CCc2cc(F)ccc2O1)C1CCc2cc(F)ccc2O1 (centres undefined) [Nebivolol] | -0.239 °C |
| CN(CC(=O)N(Cc1ccc(C2CCCCC2)cc1)c1ccc(C(=O)O)cc1)S(=O)(=O)c1c(F)c(F)c(F)c(F)c1F | -0.0756 °C |

From the supplement of paper PMC8166895
